Reference: PubChem BioAssay AID248 (DTP/NCI, 2004)
The list shows only some results of the screen, not a fair sample: it is rich in T/C values a quarter to a half above the control, in often repeated tests (any T/C) and in doses without a T/C. Other doses and runs of a compound stand elsewhere. T/C gives the treated animals as a percentage of the vehicle group. Some doses have a count of surviving animals in place of a T/C: the source files T/C as zero there, which appears to mark a toxic dose or a test without result, not a measured value. Some doses without a T/C left all or most animals alive at the check, yet need not have been tolerated: survival well below the control is almost never listed, so the zero probably covers shortened survival too. Survivors were counted at the toxicity check, usually on the fifth day, unless a day is given; later deaths do not show. Schedule codes are those of the source, read here as Q, the interval in days (D) or hours (H), X, the number of doses. Where survival is the endpoint, this PubChem deposit counts one and a half times the control or more as active, and values a quarter to a half above the control carry no call in these data; other NCI protocols may use other cut-offs. Some T/C values are followed by the survivors on the day toxicity was checked, most often the fifth; without a count, all were alive then.

Test system: L1210 leukemia ip in BDF1 mice, survival T/C
Assay: NCI In Vivo Anticancer Drug Screen. Data for tumor model L1210 Leukemia (intraperitoneal) in B6D2F1 (BDF1) mice
Conditions: T/C endpoint: mean survival time, higher T/C = longer survival

## O=C(COc1ccc(Cl)c(Cl)c1)Nc1ccc[n+](Cc2c(Cl)cccc2S(=O)(=O)F)c1
dose: 400.0 mg/kg/injection, schedule: Q01DX001 (ip), vehicle: saline
  survivor count: 2 of 6

## C[N+](C)(C)C1CS(=O)C1 (stereo not given)
dose: 100.0 mg/kg/injection, schedule: Q04DX003 (ip), vehicle: saline
  survivor count: 5 of 6
dose: 200.0 mg/kg/injection, schedule: Q04DX003 (ip), vehicle: saline
  survivor count: 1 of 6
dose: 400.0 mg/kg/injection, schedule: Q04DX003 (ip), vehicle: saline
  survivor count: 0 of 6

## CC(C)(C)C1COP(=O)(OCc2ccccc2)OC1 (stereo not given)
dose: 400.0 mg/kg/injection, schedule: Q04DX003 (ip), vehicle: other
  survivor count: 6 of 6

## COc1ccc(OC)c2c1CCCC2
dose: 400.0 mg/kg/injection, schedule: Q01DX009 (ip), vehicle: Klucel (hydroxypropylcellulose) (HPC)
  T/C: 125 % of control [4 of 6 alive]

## N#CC1(C#N)C(c2ccccc2)C1(C#N)C#N
dose: 100.0 mg/kg/injection, schedule: Q04DX003 (ip), vehicle: saline with Tween-80
  survivor count: 1 of 6
dose: 200.0 mg/kg/injection, schedule: Q04DX003 (ip), vehicle: saline with Tween-80
  survivor count: 0 of 6
dose: 400.0 mg/kg/injection, schedule: Q04DX003 (ip), vehicle: saline with Tween-80
  survivor count: 0 of 6

## CSc1ccc(NC(=O)Oc2cc3ccccc3cc2C(=O)Nc2ccccc2)cc1
dose: 400.0 mg/kg/injection, schedule: Q04DX002 (ip), vehicle: saline with Tween-80
  survivor count: 3 of 3
